Test system: male rats (Slc:Wistar)
Test: Organ weights at autopsy of male rats after repeated oral administration (Example 1)
Conditions: 500 mg/kg oral once a day, compared to the control group

NCC(=O)CCC(=O)O.O=P(O)(O)O [ALA phosphate, δ-amino levulinic acid phosphate]
No significant difference: weight of prostate gland | weight of right and left epididymis | weight of right and left testis
